Measurements reported in PubChem BioAssay AID743454 (Peter MacCallum Cancer Centre, 2014).
Screen: 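Genes whose loss kills vorinostat-resistant colon cancer cells under vorinostat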 (primary screen). Cell system: human HCT116-VR colon cancer cells, selected for vorinostat resistance. Reagents: siRNA pool against human genes, 40 nM siRNA pool. Time to read-out: vorinostat for 24 h, read-out about 72 h after transfection. Conditions: vorinostat at 2.5 µM final. Measurement: 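Cell viability by CellTiter-Fluor and caspase 3/7 activity by luminescence, each scaled to mock wells per plate, duplicates averaged, then robust z-scored over all plates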. Reading the numbers: viability robust z-score: higher = more viable cells than screen typical; caspase robust z-score: higher = more caspase 3/7 activity than screen typical. Call rule: 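Hits are knock-downs in viability class RV1/RV2 or caspase class CA1/CA2, excluding ones that killed cells in the no-drug cell-count arm; hits then retested with single siRNAs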.
This is one part, drawn at random, of about 18,000 reagents tested. 450 of them (2.5%) were called active. 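Single biological run; no consistent viability z cut-off exists, so the class columns, not z-scores, define the calls.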

gene knocked down | viability hit class | caspase hit class | viability robust z-score | caspase robust z-score | activity call
COG5 (component of oligomeric golgi complex 5) | no change | no change | 0.72 | 1.81 | inactive
MAP1B (microtubule associated protein 1B) | no change | no change | 0.78 | -0.7 | inactive
EIF3L (eukaryotic translation initiation factor 3 subunit L) | no change | CA1 (caspase activation) | 0.15 | 5.35 | active
GPRC5A (G protein-coupled receptor class C group 5 member A) | no change | no change | 0.78 | -0.3 | inactive
GTF2IRD2 (GTF2I repeat domain containing 2) | no change | no change | -0.06 | 0.31 | inactive
CCR9 (C-C motif chemokine receptor 9) | no change | no change | -1.02 | 0.61 | inactive
OR10H5 (olfactory receptor family 10 subfamily H member 5) | no change | no change | 0.33 | 1.31 | inactive
OVOL1 (ovo like transcriptional repressor 1) | no change | no change | 0.21 | -0.79 | inactive
CYP51A1 (cytochrome P450 family 51 subfamily A member 1) | no change | no change | -1.01 | 2.69 | inactive
ARRDC2 (arrestin domain containing 2) | no change | no change | -0.53 | 3.45 | inactive
LILRA5 (leukocyte immunoglobulin like receptor A5) | no change | no change | 0.76 | -0.75 | inactive
LGALS13 (galectin 13) | no change | no change | 1.61 | -1 | inactive
BCKDHA (branched chain keto acid dehydrogenase E1 subunit alpha) | no change | no change | -1.01 | 2.42 | inactive
GDAP2 (ganglioside induced differentiation associated protein 2) | no change | no change | 0.12 | 1 | inactive
BLOC1S1 (biogenesis of lysosomal organelles complex 1 subunit 1) | no change | no change | -0.2 | 1.07 | inactive
ZDHHC2 (zDHHC palmitoyltransferase 2) | no change | no change | 0.27 | 1.06 | inactive
STK11 (serine/threonine kinase 11) | no change | CA1 (caspase activation) | -1.78 | 7.31 | active
TREML2 (triggering receptor expressed on myeloid cells like 2) | no change | no change | -0.44 | 0.02 | inactive
ZFP69B (ZFP69 zinc finger protein B) | no change | no change | -0.64 | 1.75 | inactive
METTL25 (methyltransferase like 25) | no change | no change | -0.69 | -1.15 | inactive
LACTB (lactamase beta) | no change | no change | 0.94 | -0.04 | inactive
VENTX (VENT homeobox) | no change | no change | 0.4 | -1.03 | inactive
INHBA (inhibin subunit beta A) | no change | no change | 0.68 | -1.19 | inactive
KAT7 (lysine acetyltransferase 7) | no change | no change | -0.7 | -0.24 | inactive
ANXA13 (annexin A13) | no change | no change | 1.6 | -0.2 | inactive
RAB33B (RAB33B, member RAS oncogene family) | no change | no change | -0.36 | 2.29 | inactive
CTAG1A (cancer/testis antigen 1A) | no change | no change | 1.39 | 0.46 | inactive
CRYBB3 (crystallin beta B3) | no change | no change | -0.15 | -0.71 | inactive
GBX2 (gastrulation brain homeobox 2) | no change | no change | -0.31 | 3.69 | inactive
ZBTB1 (zinc finger and BTB domain containing 1) | no change | no change | -1.99 | -1.02 | inactive
EPHA8 (EPH receptor A8) | no change | no change | 1.72 | -0.12 | inactive
IGF2R (insulin like growth factor 2 receptor) | no change | no change | 0.1 | -0.78 | inactive
SPCS2P4 (signal peptidase complex subunit 2 pseudogene 4) | no change | no change | -0.21 | -0.56 | inactive
ITGA10 (integrin subunit alpha 10) | no change | no change | 0.18 | -0.01 | inactive
NAGLU (N-acetyl-alpha-glucosaminidase) | no change | no change | -1.72 | 1.21 | inactive
OR51B5 (olfactory receptor family 51 subfamily B member 5) | no change | no change | 0.9 | -0.5 | inactive

Ordered by “caspase robust z-score” (low to high): some entries from above.
gene knocked down | viability hit class | caspase hit class | viability robust z-score | caspase robust z-score | activity call
CRYBB3 (crystallin beta B3) | no change | no change | -0.15 | -0.71 | inactive
CTAG1A (cancer/testis antigen 1A) | no change | no change | 1.39 | 0.46 | inactive
GBX2 (gastrulation brain homeobox 2) | no change | no change | -0.31 | 3.69 | inactive

Additional reagents:
gene knocked down | viability hit class | caspase hit class | viability robust z-score | caspase robust z-score | activity call
NFKB1 (nuclear factor kappa B subunit 1) | no change | no change | 0.51 | -1.31 | inactive
PDE6D (phosphodiesterase 6D) | no change | no change | 0.48 | -0.63 | inactive
C1QA (complement C1q A chain) | no change | no change | -2.63 | 3.76 | inactive
SLC17A8 | no change | no change | 0.08 | -1.04 | inactive
LCN6 (lipocalin 6) | no change | no change | -0.82 | 1.27 | inactive
CERS6 (ceramide synthase 6) | no change | no change | 0.36 | -0.4 | inactive
OR51V1 (olfactory receptor family 51 subfamily V member 1) | no change | no change | 0.5 | 0.56 | inactive
ATP1B2 (ATPase Na+/K+ transporting subunit beta 2) | no change | no change | -0.62 | 1.21 | inactive
PRMT2 (protein arginine methyltransferase 2) | no change | no change | 0.64 | 0.78 | inactive
WDR17 (WD repeat domain 17) | no change | no change | 0.1 | -0.22 | inactive
ABCC5 (ATP binding cassette subfamily C member 5) | no change | no change | 0.57 | -0.92 | inactive
TIMP4 (TIMP metallopeptidase inhibitor 4) | no change | no change | 0.54 | -0.74 | inactive
OSTF1 (osteoclast stimulating factor 1) | no change | no change | -0.32 | -1.27 | inactive
SCUBE1 (signal peptide, CUB domain and EGF like domain containing 1) | no change | CA2 (caspase activation) | -1.96 | 5.42 | active
SLC44A2 | no change | no change | 0.14 | -0.63 | inactive
MDN1 (midasin AAA ATPase 1) | no change | no change | -1.23 | -0.92 | inactive
ZNF7 (zinc finger protein 7) | no change | no change | -0.07 | -0.18 | inactive
DERL3 (derlin 3) | no change | no change | -0.55 | 0.96 | inactive
NKAIN4 (sodium/potassium transporting ATPase interacting 4) | no change | no change | 0.34 | -0.62 | inactive
ATOH8 (atonal bHLH transcription factor 8) | no change | no change | 0.08 | -0.63 | inactive
MYO1D (myosin ID) | no change | no change | -0.04 | 0.71 | inactive
PHLPP2 (PH domain and leucine rich repeat protein phosphatase 2) | no change | no change | 0.56 | -0.37 | inactive
DCK (deoxycytidine kinase) | no change | no change | -3.12 | 0.5 | inactive
PLPPR4 (phospholipid phosphatase related 4) | no change | no change | 0.67 | 0.12 | inactive
GATC (glutamyl-tRNA amidotransferase subunit C) | no change | no change | 0.18 | -0.98 | inactive
PSMB1 (proteasome 20S subunit beta 1) | no change | no change | -4.63 | 1.75 | inactive
MAN2A1 (mannosidase alpha class 2A member 1) | no change | no change | 0.55 | 0.1 | inactive
DHFR2 (dihydrofolate reductase 2) | no change | no change | 1.21 | -0.7 | inactive
MAP1LC3C (microtubule associated protein 1 light chain 3 gamma) | no change | no change | 0.7 | -0.14 | inactive
FAM107B (family with sequence similarity 107 member B) | no change | no change | -0.49 | 1.08 | inactive
MYL12B (myosin light chain 12B) | no change | no change | -0.48 | 0.06 | inactive
AFDN (afadin, adherens junction formation factor) | no change | no change | -0.06 | -1.15 | inactive
KLRG1 (killer cell lectin like receptor G1) | no change | no change | 0.26 | 1.48 | inactive
KY (kyphoscoliosis peptidase) | no change | no change | -0.75 | 0.62 | inactive
DLG1 (discs large MAGUK scaffold protein 1) | no change | no change | -0.22 | -0.32 | inactive
MRGPRD (MAS related GPR family member D) | no change | no change | 0.15 | -1.21 | inactive
BAD (BCL2 associated agonist of cell death) | no change | no change | 0.16 | 0.64 | inactive
